Results from the supplement of paper PMC10849652.
The other results are listed elsewhere or left out. Residues, ends and D or L forms follow the SMILES beside them. *: point of attachment. Cbz = O=C(OCc1ccccc1)*

Amino acid sequences for entries named in this document (tags omitted). A change or cut given only in a name is not applied to a line headed by its entry.
UniProt O00488: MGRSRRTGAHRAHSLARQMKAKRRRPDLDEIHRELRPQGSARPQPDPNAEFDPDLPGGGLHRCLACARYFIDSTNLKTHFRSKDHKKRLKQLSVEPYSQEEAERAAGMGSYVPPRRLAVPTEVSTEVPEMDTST
UniProt Q86UK7: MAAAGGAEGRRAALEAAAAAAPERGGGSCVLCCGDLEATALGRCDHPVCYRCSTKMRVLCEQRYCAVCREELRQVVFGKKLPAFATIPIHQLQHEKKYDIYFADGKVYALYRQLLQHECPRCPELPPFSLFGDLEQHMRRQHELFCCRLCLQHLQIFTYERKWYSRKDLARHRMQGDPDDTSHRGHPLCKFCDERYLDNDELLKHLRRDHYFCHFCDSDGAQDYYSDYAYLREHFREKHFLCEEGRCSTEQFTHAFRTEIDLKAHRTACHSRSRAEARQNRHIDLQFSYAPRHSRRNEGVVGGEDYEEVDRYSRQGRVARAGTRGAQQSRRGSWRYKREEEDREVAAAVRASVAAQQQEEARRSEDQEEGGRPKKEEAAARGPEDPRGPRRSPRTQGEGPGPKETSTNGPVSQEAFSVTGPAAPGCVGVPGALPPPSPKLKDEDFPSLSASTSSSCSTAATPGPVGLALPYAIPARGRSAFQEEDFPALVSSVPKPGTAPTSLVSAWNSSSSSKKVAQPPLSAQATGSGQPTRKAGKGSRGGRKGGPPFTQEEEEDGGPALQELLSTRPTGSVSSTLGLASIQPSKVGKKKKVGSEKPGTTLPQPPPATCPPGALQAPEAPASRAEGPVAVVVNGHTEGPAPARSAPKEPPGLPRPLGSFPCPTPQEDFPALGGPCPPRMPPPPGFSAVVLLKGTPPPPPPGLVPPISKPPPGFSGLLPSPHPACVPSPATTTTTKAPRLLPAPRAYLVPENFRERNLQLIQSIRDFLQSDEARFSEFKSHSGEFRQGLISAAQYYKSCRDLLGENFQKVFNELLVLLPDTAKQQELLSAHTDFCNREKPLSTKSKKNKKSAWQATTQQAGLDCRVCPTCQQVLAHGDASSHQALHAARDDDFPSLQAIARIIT
UniProt O15014: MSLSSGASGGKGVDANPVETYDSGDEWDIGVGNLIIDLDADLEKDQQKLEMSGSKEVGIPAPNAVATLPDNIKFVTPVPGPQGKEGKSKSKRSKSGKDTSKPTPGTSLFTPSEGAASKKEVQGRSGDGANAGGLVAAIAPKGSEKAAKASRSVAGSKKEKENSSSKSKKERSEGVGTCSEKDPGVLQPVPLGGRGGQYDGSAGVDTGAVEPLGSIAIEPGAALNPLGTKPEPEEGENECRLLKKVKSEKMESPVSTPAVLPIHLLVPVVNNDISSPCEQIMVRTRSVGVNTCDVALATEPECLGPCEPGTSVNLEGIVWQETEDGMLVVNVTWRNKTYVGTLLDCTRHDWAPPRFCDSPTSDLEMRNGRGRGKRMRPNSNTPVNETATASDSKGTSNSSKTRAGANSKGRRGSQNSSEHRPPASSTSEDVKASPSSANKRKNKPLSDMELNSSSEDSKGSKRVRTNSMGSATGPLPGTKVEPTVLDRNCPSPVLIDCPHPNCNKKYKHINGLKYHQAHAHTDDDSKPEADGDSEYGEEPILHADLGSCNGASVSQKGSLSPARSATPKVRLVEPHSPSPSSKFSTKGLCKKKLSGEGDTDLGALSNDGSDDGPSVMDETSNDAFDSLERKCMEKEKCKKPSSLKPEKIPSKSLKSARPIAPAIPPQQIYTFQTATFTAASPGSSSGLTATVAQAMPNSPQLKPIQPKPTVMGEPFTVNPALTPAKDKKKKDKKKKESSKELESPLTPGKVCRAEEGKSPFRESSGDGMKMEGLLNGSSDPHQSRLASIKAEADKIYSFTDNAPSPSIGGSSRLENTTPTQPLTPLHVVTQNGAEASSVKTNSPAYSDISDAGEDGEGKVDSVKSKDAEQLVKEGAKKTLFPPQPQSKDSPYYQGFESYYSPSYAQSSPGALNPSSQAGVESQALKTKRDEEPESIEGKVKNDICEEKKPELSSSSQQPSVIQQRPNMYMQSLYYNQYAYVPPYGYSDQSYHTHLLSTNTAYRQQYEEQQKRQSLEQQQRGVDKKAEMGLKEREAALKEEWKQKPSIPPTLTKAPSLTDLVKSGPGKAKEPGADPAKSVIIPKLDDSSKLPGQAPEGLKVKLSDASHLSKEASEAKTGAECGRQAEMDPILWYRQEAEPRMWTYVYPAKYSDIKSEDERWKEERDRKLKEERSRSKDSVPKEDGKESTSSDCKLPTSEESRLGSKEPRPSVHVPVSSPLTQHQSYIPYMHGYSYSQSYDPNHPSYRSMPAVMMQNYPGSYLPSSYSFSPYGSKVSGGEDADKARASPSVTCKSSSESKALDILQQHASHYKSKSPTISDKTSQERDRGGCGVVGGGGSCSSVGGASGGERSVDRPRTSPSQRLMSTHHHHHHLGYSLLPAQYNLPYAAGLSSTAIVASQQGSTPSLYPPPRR
UniProt Q5T7W0: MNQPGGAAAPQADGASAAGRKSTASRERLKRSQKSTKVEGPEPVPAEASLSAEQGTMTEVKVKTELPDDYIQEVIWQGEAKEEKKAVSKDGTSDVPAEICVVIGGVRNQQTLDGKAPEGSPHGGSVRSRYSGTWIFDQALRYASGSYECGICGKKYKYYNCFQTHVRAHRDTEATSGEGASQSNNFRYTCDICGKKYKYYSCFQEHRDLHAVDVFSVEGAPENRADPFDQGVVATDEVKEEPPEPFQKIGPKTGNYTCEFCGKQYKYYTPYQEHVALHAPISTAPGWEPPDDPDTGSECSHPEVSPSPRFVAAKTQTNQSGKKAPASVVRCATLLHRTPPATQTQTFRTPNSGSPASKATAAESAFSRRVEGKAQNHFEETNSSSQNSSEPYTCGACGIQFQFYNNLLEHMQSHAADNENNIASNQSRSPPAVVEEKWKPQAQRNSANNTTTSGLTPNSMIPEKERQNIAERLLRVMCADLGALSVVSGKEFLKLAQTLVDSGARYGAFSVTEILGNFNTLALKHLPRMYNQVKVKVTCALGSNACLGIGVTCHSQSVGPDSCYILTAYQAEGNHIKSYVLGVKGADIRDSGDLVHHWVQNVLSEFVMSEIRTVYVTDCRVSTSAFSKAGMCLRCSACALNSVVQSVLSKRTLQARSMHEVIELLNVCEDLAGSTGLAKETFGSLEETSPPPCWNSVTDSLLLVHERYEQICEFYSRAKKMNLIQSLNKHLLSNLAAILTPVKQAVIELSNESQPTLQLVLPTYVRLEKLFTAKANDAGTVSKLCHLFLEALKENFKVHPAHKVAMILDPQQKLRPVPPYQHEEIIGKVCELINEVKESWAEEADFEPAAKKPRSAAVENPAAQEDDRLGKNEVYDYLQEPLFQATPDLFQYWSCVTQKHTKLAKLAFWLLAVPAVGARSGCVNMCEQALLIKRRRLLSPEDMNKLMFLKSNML
UniProt Q969S3: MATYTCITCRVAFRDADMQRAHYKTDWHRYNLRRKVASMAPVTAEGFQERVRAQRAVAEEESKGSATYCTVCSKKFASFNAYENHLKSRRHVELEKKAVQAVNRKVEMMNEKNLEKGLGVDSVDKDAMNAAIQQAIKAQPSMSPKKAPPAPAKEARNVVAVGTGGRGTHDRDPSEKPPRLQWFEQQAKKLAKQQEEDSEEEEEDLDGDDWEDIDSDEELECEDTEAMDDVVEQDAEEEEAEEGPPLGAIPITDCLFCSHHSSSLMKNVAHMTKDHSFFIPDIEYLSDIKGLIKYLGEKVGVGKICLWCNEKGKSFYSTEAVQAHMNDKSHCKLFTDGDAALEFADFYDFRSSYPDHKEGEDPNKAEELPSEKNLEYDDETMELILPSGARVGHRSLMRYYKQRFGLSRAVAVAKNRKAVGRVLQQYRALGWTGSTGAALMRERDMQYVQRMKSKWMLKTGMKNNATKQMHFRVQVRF
UniProt Q9UEG4: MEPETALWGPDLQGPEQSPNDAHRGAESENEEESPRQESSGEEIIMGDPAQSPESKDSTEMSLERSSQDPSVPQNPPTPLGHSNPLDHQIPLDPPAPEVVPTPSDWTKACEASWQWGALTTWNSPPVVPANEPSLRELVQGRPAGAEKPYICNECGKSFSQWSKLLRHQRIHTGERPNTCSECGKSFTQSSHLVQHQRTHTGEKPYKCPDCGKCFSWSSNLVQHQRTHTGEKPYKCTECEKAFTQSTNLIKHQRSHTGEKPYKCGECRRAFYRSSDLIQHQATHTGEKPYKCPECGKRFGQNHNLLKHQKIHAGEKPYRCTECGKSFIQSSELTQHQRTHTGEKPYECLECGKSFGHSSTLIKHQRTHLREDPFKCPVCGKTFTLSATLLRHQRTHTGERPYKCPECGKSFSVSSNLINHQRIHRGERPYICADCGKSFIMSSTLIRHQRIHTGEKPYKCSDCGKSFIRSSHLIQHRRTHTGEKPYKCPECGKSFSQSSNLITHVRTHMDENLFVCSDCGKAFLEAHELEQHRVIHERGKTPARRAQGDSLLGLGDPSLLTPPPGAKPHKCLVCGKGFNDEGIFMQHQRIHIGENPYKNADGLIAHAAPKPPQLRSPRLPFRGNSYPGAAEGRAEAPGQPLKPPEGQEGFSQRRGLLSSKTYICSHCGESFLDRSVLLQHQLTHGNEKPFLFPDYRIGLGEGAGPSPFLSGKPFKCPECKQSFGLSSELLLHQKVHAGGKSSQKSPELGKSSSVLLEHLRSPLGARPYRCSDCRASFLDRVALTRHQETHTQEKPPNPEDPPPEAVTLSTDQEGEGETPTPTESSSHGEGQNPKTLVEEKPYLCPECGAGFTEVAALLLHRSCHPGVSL
UniProt Q9UID6: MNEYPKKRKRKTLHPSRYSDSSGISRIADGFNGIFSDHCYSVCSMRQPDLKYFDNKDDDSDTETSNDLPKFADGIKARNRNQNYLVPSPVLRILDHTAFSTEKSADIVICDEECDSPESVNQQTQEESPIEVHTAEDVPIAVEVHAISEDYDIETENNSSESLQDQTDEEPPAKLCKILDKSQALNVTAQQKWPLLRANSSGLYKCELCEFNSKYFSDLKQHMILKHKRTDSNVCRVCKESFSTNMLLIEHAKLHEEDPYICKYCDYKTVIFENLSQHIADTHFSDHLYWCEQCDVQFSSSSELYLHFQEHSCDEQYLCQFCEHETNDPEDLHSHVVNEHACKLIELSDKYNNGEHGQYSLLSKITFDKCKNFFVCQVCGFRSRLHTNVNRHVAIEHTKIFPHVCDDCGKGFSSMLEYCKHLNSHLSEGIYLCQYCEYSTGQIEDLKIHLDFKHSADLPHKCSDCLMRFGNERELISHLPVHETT

Assays:
Test in all cases: log2 fold change, soluble protein after heating vs DMSO (PISA); higher = thermal stabilisation; K562 cells, 10 uM, 30 min; active = over 0.2 and 3.5 SD of the protein, either way, in both replicates (recomputed)
ZNF593 = ZNF593 (UniProt O00488)
Summary of the method: (§1)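 Aliquots of K562 cells (2×10^6 cells/mL) treated with 10 μM compound for 30 min were heated for 3 min over 48°C-58°C. After pooling and extraction in PBS with 0.5% NP-40 at 4°C, soluble protein from a 21,000xg, 90 min spin was quantified by TMTpro 16plex LC-MS/MS with channel sums equalised. Thermal stability is expressed against control samples, from duplicates, as a log2 fold change.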

ZNF598 = ZNF598 (UniProt Q86UK7)
Summary of the method: as §1

ZNF609 = ZNF609 (UniProt O15014)
Summary of the method: as §1

ZNF618 [1] = molecular target: ZNF618 (UniProt Q5T7W0)
Summary of the method: as §1

ZNF618 isoform 2 = ZNF618 isoform 2 (UniProt Q5T7W0)
Summary of the method: as §1

ZNF622 = ZNF622 (UniProt Q969S3)
Summary of the method: as §1

ZNF629 = ZNF629 (UniProt Q9UEG4)
Summary of the method: as §1

ZNF638 = ZNF638 (UniProt Q14966)
Summary of the method: as §1

ZNF639 = ZNF639 (UniProt Q9UID6)
Summary of the method: as §1

ZNF618 [2] = molecular target: ZNF618 (UniProt B1ALC2)
Summary of the method: as §1

Measured: log2 fold change

Cc1nc(Nc2ncc(C(=O)Nc3c(C)cccc3Cl)s2)cc(N2CCN(CCO)CC2)n1 [dasatinib]
inactive: ZNF593 = 0.105 | ZNF598 = -0.178 | ZNF609 = 0 | ZNF618 [1] 0.031 | ZNF618 isoform 2 = -0.258 | ZNF622 = 0.012 | ZNF629 = 0.071 | ZNF638 = 0.245

CC(C)C[C@@H](C=O)NC(=O)[C@H](CC(C)C)NC(=O)[C@H](CC(C)C)NC(=O)OCc1ccccc1 (Cbz-Leu-Leu-Leu-aldehyde)
inactive: ZNF593 = 0.129 | ZNF598 = 0.005 | ZNF609 = 0.031 | ZNF618 [1] 0.052 | ZNF618 isoform 2 = 0.273 | ZNF622 = -0.036 | ZNF629 = 0.173 | ZNF638 = 0.067

CCCS(=O)(=O)Nc1ccc(F)c(C(=O)c2c[nH]c3ncc(Cl)cc23)c1F
inactive: ZNF593 = -0.201 | ZNF598 = 0.07 | ZNF609 = 0.036 | ZNF618 [1] -0.001 | ZNF618 isoform 2 = 0.033 | ZNF622 = 0.023 | ZNF629 = -0.114

CS(=O)(=O)CCNCc1ccc(-c2ccc3ncnc(Nc4ccc(OCc5cccc(F)c5)c(Cl)c4)c3c2)o1 [lapatinib]
inactive: ZNF593 = 0.091 | ZNF598 = 0.009 | ZNF609 = 0.09 | ZNF618 [1] 0 | ZNF618 isoform 2 = 0.037 | ZNF622 = 0 | ZNF629 = 0.101

CNc1nc(-c2ccc3c(N)n[nH]c3c2)cc(N2C[C@@H](C(=O)NC3CCCCC3)CC[C@H]2C)n1
inactive: ZNF593 = 0.116 | ZNF598 = 0.072 | ZNF609 = -0.004 | ZNF618 [1] 0.003 | ZNF618 isoform 2 = 0.03 | ZNF622 = -0.019 | ZNF629 = 0.043 | ZNF638 = -0.078

CCn1c(C(=O)N(C2CC2)C2CC2)cc2c3c(ncn3C)c(Nc3cc(C)n(C)n3)nc21
inactive: ZNF593 = 0.035 | ZNF598 = -0.086 | ZNF618 [1] -0.068 | ZNF618 isoform 2 = -0.301 | ZNF629 = -0.284 | ZNF638 = 0.019

CN1CCc2c(c3ccccc3n2Cc2ccc(C(=O)NO)cc2)C1 [Tubastatin A]
inactive: ZNF593 = 0.064 | ZNF598 = 0 | ZNF609 = -0.126 | ZNF618 [1] 0.023 | ZNF618 isoform 2 = -0.009 | ZNF622 = 0.018 | ZNF629 = 0.05 | ZNF638 = -0.004 | ZNF639 = 0.155

CN1CC[C@H](c2c(O)cc(O)c3c(=O)cc(-c4ccccc4Cl)oc23)[C@H](O)C1 [alvocidib]
inactive: ZNF593 = 0.287 | ZNF598 = -0.225 | ZNF618 [2] 0 | ZNF618 [1] -0.021 | ZNF629 = 0.254 | ZNF638 = -0.053

c1cn2cc(-c3ccc4cn[nH]c4c3)nc(Nc3ccc(N4CCOCC4)cc3)c2n1 [entospletinib]
inactive: ZNF593 = 0.071 | ZNF598 = -0.024 | ZNF618 [1] -0.01 | ZNF618 isoform 2 = 0.072 | ZNF629 = 0.17 | ZNF638 = -0.023 | ZNF639 = 0.061

O=C(CCCCCCNC(=O)c1cnc(N(c2ccccc2)c2ccccc2Cl)nc1)NO [citarinostat]
inactive: ZNF593 = -0.077 | ZNF598 = 0.039 | ZNF609 = 0.083 | ZNF618 [1] 0.041 | ZNF618 isoform 2 = 0.071 | ZNF622 = -0.011 | ZNF629 = -0.117 | ZNF638 = 0.021 | ZNF639 = 0.152

O=C1NC(=NCc2cccs2)S/C1=C\c1ccc2ncccc2c1
inactive: ZNF593 = -0.024 | ZNF598 = 0.02 | ZNF609 = -0.025 | ZNF618 [1] 0.033 | ZNF622 = 0.07 | ZNF629 = -0.074 | ZNF638 = 0.037 | ZNF639 = -0.06

CC1=C(C(=O)Nc2cc3cn[nH]c3cc2F)C(c2ccc(C(F)(F)F)cc2)CC(=O)N1 (stereo not given)
inactive: ZNF593 = 0.053 | ZNF598 = 0.006 | ZNF618 [2] -0.083 | ZNF618 [1] 0.026 | ZNF629 = 0.04

NCC(=O)Nc1ccc(-n2nc(C(F)(F)F)cc2-c2ccc3c(ccc4ccccc43)c2)cc1
inactive: ZNF593 = 0.123 | ZNF598 = -0.069 | ZNF609 = -0.076 | ZNF618 [1] 0.019 | ZNF618 isoform 2 = 0.16 | ZNF622 = -0.016 | ZNF629 = 0.121 | ZNF638 = 0.101 | ZNF639 = 0

CCCS(=O)(=O)Nc1ccc(F)c(C(=O)c2c[nH]c3ncc(-c4ccc(Cl)cc4)cc23)c1F [vemurafenib]
inactive: ZNF593 = -0.09 | ZNF598 = 0.028 | ZNF609 = 0.025 | ZNF618 [1] -0.094 | ZNF618 isoform 2 = 0.249 | ZNF622 = 0.012 | ZNF629 = -0.111 | ZNF638 = -0.079 | ZNF639 = 0.195

Copied from the results shown (two entries):
NCC(=O)Nc1ccc(-n2nc(C(F)(F)F)cc2-c2ccc3c(ccc4ccccc43)c2)cc1
inactive: ZNF593 = 0.123 | ZNF598 = -0.069 | ZNF609 = -0.076 | ZNF618 [1] 0.019 | ZNF618 isoform 2 = 0.16 | ZNF622 = -0.016 | ZNF629 = 0.121 | ZNF638 = 0.101 | ZNF639 = 0

CCCS(=O)(=O)Nc1ccc(F)c(C(=O)c2c[nH]c3ncc(-c4ccc(Cl)cc4)cc23)c1F [vemurafenib]
inactive: ZNF593 = -0.09 | ZNF598 = 0.028 | ZNF609 = 0.025 | ZNF618 [1] -0.094 | ZNF618 isoform 2 = 0.249 | ZNF622 = 0.012 | ZNF629 = -0.111 | ZNF638 = -0.079 | ZNF639 = 0.195

(more compounds)

CNCc1ccc(-c2[nH]c3cc(F)cc4c3c2CCNC4=O)cc1 [rucaparib]
inactive: ZNF593 = 0.106 | ZNF598 = 0.135 | ZNF609 = -0.034 | ZNF618 [1] 0.012 | ZNF618 isoform 2 = 0.466 | ZNF622 = -0.194 | ZNF629 = 0.213 | ZNF638 = -0.012 | ZNF639 = 0.014

Nc1ccccc1NC(=O)c1ccc(CNC(=O)OCc2cccnc2)cc1 [entinostat]
inactive: ZNF593 = -0.1 | ZNF598 = 0.004 | ZNF609 = -0.061 | ZNF618 [1] 0.007 | ZNF618 isoform 2 = -0.104 | ZNF622 = -0.007 | ZNF629 = -0.03 | ZNF638 = -0.022 | ZNF639 = -0.007

C/C(=N\NC(=O)c1cccc(S(=O)(=O)N2CCOCC2)c1)c1cc(Cl)ccc1O
inactive: ZNF593 = -0.079 | ZNF598 = 0.072 | ZNF609 = -0.048 | ZNF618 [1] 0.021 | ZNF622 = 0.015 | ZNF629 = -0.108 | ZNF638 = -0.113 | ZNF639 = 0.118

c1cc(OCCN2CCCCC2)cc(-c2n[nH]c3ccc(-c4nnc[nH]4)cc23)c1
inactive: ZNF593 = -0.119 | ZNF598 = -0.087 | ZNF609 = -0.003 | ZNF618 [1] -0.005 | ZNF618 isoform 2 = -0.18 | ZNF622 = 0.092 | ZNF629 = -0.116 | ZNF638 = 0 | ZNF639 = 0.04

CN(C)CC(=O)Nc1ccc2[nH]c(=O)c3ccccc3c2c1
inactive: ZNF593 = -0.118 | ZNF598 = 0.077 | ZNF609 = 0.047 | ZNF618 [1] 0.001 | ZNF618 isoform 2 = -0.061 | ZNF622 = -0.024 | ZNF629 = -0.18 | ZNF638 = -0.05 | ZNF639 = 0.063
